Results are given in words; binding and its absence hold for the method and conditions named. In cells and extracts the contact can be indirect. Here binding means that the protein was enriched with, or labelled near, the bait; the list need not be complete.
B1: CG9213 (protein, UniProt Q9VXT5 1-687)
chain: MSYIQFESGREKDKARQELREAREAMLQQAKERAELRGQRERQKELRGEADWMLPALAKKLEKPAKKSKKNVSKHKSRSKSKSSKKSRKHRNSSSSSESSTSSSSSFSEDEKERKRRKKKSKRSRKESASEDEWVEAPPPLAADNVTKKEPPQRDDWMTSESLLLKTFSRERKEPAKPNEKAQQIDAYDPAKSGRELNPYWKSNGTGLPGFQKPQDDDERQAKPHSSSSAQGSSRGWRKPGAKAPSPPRRSRSRSKSATSSDEEEEEAVQQPKSRPSCLTDEQINELAGKAIKAELKGKKELAAELNQQLEAARKERAEFIASGESVRNANTRPAKSKASAEHVLLTKVDQSGNVRPLVQSGDPNESYGGRMGPKRGSKKVDTHVDGQRVRYFADDDRYDIKQMFEREKHATAAEVNLQYADIVSKHKNPNDDLDDIFADKVRKQISASDAEKREMQSAIREHEKLVATLDNCERCFDSAKLDKQLLVSLGDKIYLSLPWYMGLQSGHCILTTLQHVPCCTQLDEDAWEEISNFRKALTRMFAARRQDVVFYEIANKLHRRPHLSVHCIPIPASQGEMAPFYFKKAIEESEQEWCINKQLVSLRQKSLRAAIPKGLPYVWVHFGMDSGFAHVIEDEDRFPANFAQEILGGMLELNPNAWRKPRKEANPIGKVKSFAENWKKFDCTQN
B2: Endogenous CDK12 of S2 cells (enzyme, UniProt Q9VP22 1-1157)
chain: MHASSAAATALVEYSDVSSEDFSDQEAGDLDADAGKGAGNIKKPKPAPDNQFSKGRLDAKPDKEGYDNYRSRRAEDSSDPVAAGSRQTSSSEATNPREEPSQASNTSKDELWGREIYMSSDSIDTDELEAEMKRQKRKKQKKEKHKHKSKKKSKKRKKKRAKSYSSIDSMSDNDINALLDRRYTPPTAPSKSNERTVSAAPSSFTPHNLKESSSPATPPPVRRPNTNSNYYGESSLETANSALGSNLQVTVTNKQSISNRLRSPPPSSRSSGNGPRFGNSPRTPPPSHYSSSGGGGVGSGSVVRDSRSSRYVNSPHKEDVSAHHRSSHDHGYQGRYSGAGSSSHDTRKVKRLSPELDRYNHQPSTPPHKRRKFSDGREVGLGNFEHSRHHSGKYERYSRDRYSRRSSRSPSVQHSRSRQSPSGGLSSGSNAFRHGGSHKHKYGTTVSSTPSHTTRTSKRASGTGTSGDRYSRSPRTSSRYMESSPPSPVGASGSHHYHHRRSPRMRQRTRGDSRRRSPSSASSESSASRSRSPTSRDLKHKREEYIKKISETSLFAELVKDRHKRQKALKEIIERQEENSNSNSNGALTINDNSSSVDGNTPNAADGRSAPGSGTPAAASTTSNGLQALGSKPDLDLNNIPMPNKQNDSVVSNPASNADVPDSVAQLKQPLLVPPFSASKNNIKPKSLTSLPLPPGMNVLDLAGARSPSPGQKKESDEKNVTSSGSANKSVLNLPMPPVIPGSEELSGDDDVIDSPEDFDAPAVGTVHGHGGGPGTTRQRPVILNRRDSRNNVRDWGERCVDVFEMIAQIGEGTYGQVYKARDHHTNDMVALKKVRLEHEKEGFPITAVREIKILRQLNHRNIVNLHEIVTDKQDAVEFRKDKGSFYLVFEYMDHDLMGLLESGMVDFNEENNASIMKQLLDGLNYCHKKNFLHRDIKCSNILMNNRGKVKLADFGLARLYNADDRERPYTNKVITLWYRPPELLLGEERYGPSIDVWSCGCILGELFVKRPLFQANAEMAQLETISKICGSPVPAVWPNVIKLPLFHTLKQKKTHRRRLREDFEFMPAPALDLLDKMLDLDPDKRITAEDALRSPWLRKINPDEMPTPQLPTWQDCHELWSKKRRRQMREQQESLPPTVIASTKYQQHGATMVGDA
B3: Stau (protein, UniProt P25159 1-1026)
chain: MQHNVHAARPAPHIRAAHHHSHSHAHMHLHPGMEQHLGPSLQQQQQPPPPPQQPPHRDLHARLNHHHLHAQQQQQQQTSSNQAGAVAAAGAAYHHGNINSNSGSNISSNSNQMQKIRQQHQHLSSSNGLLGNQPPGPPPQAFNPLAGNPAALAYNQLPPHPPHHMAAHLGSYAAPPPHYYMSQAKPAKYNHYGSNANSNSGSNNSNSNYAPKAILQNTYRNQKVVVPPVVQEVTPVPEPPVTTNNATTNSTSNSTVIASEPVTQEDTSQKPETRQEPASADDHVSTGNIDATGALSNEDTSSSGRGGKDKTPMCLVNELARYNKITHQYRLTEERGPAHCKTFTVTLMLGDEEYSADGFKIKKAQHLAASKAIEETMYKHPPPKIRRSEEGGPMRTHITPTVELNALAMKLGQRTFYLLDPTQIPPTDSIVPPEFAGGHLLTAPGPGMPQPPPPPAYALRQRLGNGFVPIPSQPMHPHFFHGPGQRPFPPKFPSRFALPPPLGAHVHHGPNGPFPSVPTPPSKITLFVGKQKFVGIGRTLQQAKHDAAARALQVLKTQAISASEEALEDSMDEGDKKSPISQVHEIGIKRNMTVHFKVLREEGPAHMKNFITACIVGSIVTEGEGNGKKVSKKRAAEKMLVELQKLPPLTPTKQTPLKRIKVKTPGKSGAAAREGSVVSGTDGPTQTGKPERRKRLNPPKDKLIDMDDADNPITKLIQLQQTRKEKEPIFELIAKNGNETARRREFVMEVSASGSTARGTGNSKKLAKRNAAQALFELLEAVQVTPTNETQSSEECSTSATMSAVTAPAVEATAEGKVPMVATPVGPMPGILILRQNKKPAKKRDQIVIVKSNVESKEEEANKEVAVAAEENSNNSANSGDSSNSSSGDSQATEAASESALNTSTGSNTSGVSSNSSNVGANTDGNNHAESKNNTESSSNSTSNTQSAGVHMKEQLLYLSKLLDFEVNFSDYPKGNHNEFLTIVTLSTHPPQICHGVGKSSEESQNDAASNALKILSKLGLNNAMK
B4: shep (protein, UniProt Q8MSV2 1-590)
chain: MHPRYSPAPPPQQQQQMGGPPHQQQGGGGGGGVSMRGPSNAQQLPPQIPRSQNYSNGSSSSAAAAPLTSRSAFPGAPLTASAVALKGALPQRPPAMTSPAAAAAGAALAAGAPYRGAASWTPQGYAPAAAAAAAAVAQQAAYRYTAPLPQPAYAAYTPHTATTPATTTVSFLSQPVDYYWYGQRVPTAASPSNTNSSSSSNTGSQSGTLSTSLSNTTNTNTNMGPNGTVQNQNQQGGEQLSKTNLYIRGLQQGTTDKDLVNMCAQYGTIISTKAILDKTTNKCKGYGFVDFEQPAFAECAVKGLQGKGVQAQMAKQQEQDPTNLYIANLPPHFKETDLEAMLSKYGQVVSTRILRDQQMNSKGVGFARMESREKCEQIIQMFNGNTIPGAKDPLLVKFADGGPKKKNLFKTPDPNARAWRDVSAEGIPVAYDPTMQQNGVSVNVGTPIGVPYSRFSAPQVGGYPVAGSQWIPGYMMTQVDDQTSYSPQYMQMAAAPPLGVTSYKPEAVNQVQPRGISMMVSGDTGVPYGTMMPQLATLQIGNSYISPTYPYYAPPPTIIPTMPMTDSEQASTAASPDEAYTQYPHQAAPK
B5: Fand (protein, UniProt A1Z9G2 1-883)
chain: MVTKTIKSLNLEINFEVEDVPYEEEILRNAYSVKHWLRYIDHKAKAPNNGVNMVYERALKELPGSYKIWHNYLRTRRKQVRGKIPTDPMYEEVNSAFERALVFMHKMPRIWMDYGAFMTSQCKITRTRHVFDRALRALPITQHGRIWPLYLQFVRRFEMPETALRVYRRYLKLFPEDTEEYVDYLQEADRLDEAAQQLAHIVDNEHFVSKHGKSNHQLWNELCDLISKNPHKVHSLNVDAIIRGGLRRYTDQLGHLWNSLADYYVRSGLFDRARDIYEEAIQTVTTVRDFTQVFDEYAQFEELSLNRRMEQVAANEAATEEDDIDVELRLSRFEYLMERRLLLLNSVLLRQNPHNVHEWHKRVTLYEDKPAEIISTYTEAVQTVQPKQAVGKLHTLWVEFAKFYEANGQVEDARVVFERGTEVEYVKVEDLAAVWCEWAEMELRQQQFEAALKLMQRATAMPKRKIAYYDDTETVQARLHRSLKVWSMYADLEESFGTFKTCKAVYERIIDLKICTPQIIINYGMFLEEHNYFEEAYRAYEKGISLFKWPNVYDIWNSYLTKFLERYGGTKLERARDLFEQCLDQCPPEHAKYFYLLYAKLEEEHGLARHAMSVYDRATSAVKEDEMFDMYNIFIKKAAEIYGLPRTREIYEKAIESLPEQNMRHMCVKFAELETKLGEVDRARAIYAHCSQVCDPRITADFWQTWKEFEVRHGNEDTMREMLRIKRSVQATYNTQVNMMAAQFLSTNNGAAADAGAGAGPDAMRLLEEKARQAAAESKQKPIEKAASNIMFVRGETQGGAKDKKDTVVNPDEIDIGDSDEDDEEEDDDEENEMTNENQASAAVTKTDEEGLVMKKLRFEQKAIPAKVFGSLKPSNQGDSDGE

Chains of the proteins cited; added tags and fusions are not shown.
UniProt P68831: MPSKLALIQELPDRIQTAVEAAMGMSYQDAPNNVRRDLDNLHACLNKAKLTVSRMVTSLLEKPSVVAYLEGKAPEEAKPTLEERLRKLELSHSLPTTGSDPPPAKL

The binders below were run against V5-tagged B2 of Flock House virus (FHV) (Flock House virus) (UniProt P68831) (assay: affinity purification with mass spectrometry; S2 cells transfected with V5-tagged B2 for 48 h; lysate in RIPA buffer immunoprecipitated with anti-V5 antibody on protein A agarose; on-bead trypsin digest, LC-MS/MS; control empty vector / anti-IgG).

Binder	binding
B1	binds
B2	binds
B3	binds
B4	binds
B5	binds
